The subject of this assay is L1210 leukemia ip in BDF1 mice, survival T/C. Briefly: NCI In Vivo Anticancer Drug Screen. Data for tumor model L1210 Leukemia (intraperitoneal) in B6D2F1 (BDF1) mice. To be noted: higher T/C = longer survival.
Setting [1] is: T/C endpoint: mean survival time, dose: 100.0 mg/kg/injection, schedule: Q04DX003 (ip), vehicle: Klucel (hydroxypropylcellulose) (HPC).
Where [2] appears, read: T/C endpoint: mean survival time, dose: 200.0 mg/kg/injection, schedule: Q04DX003 (ip), vehicle: Klucel (hydroxypropylcellulose) (HPC).
[3] abbreviates: T/C endpoint: mean survival time, dose: 400.0 mg/kg/injection, schedule: Q04DX003 (ip), vehicle: Klucel (hydroxypropylcellulose) (HPC).
Setting [4] is: T/C endpoint: mean survival time, dose: 100.0 mg/kg/injection, schedule: Q01DX001 (ip), vehicle: Klucel (hydroxypropylcellulose) (HPC).
Where [5] appears, read: T/C endpoint: mean survival time, dose: 200.0 mg/kg/injection, schedule: Q01DX001 (ip), vehicle: Klucel (hydroxypropylcellulose) (HPC).
Setting [6] is: T/C endpoint: mean survival time, dose: 200.0 mg/kg/injection, schedule: Q04DX002 (ip), vehicle: Klucel (hydroxypropylcellulose) (HPC).
Setting [7] is: T/C endpoint: mean survival time, dose: 400.0 mg/kg/injection, schedule: Q04DX002 (ip), vehicle: Klucel (hydroxypropylcellulose) (HPC).

The list shows only some results of the screen, not a fair sample: it is rich in T/C values a quarter to a half above the control, in often repeated tests (any T/C) and in doses without a T/C. Further doses and runs are listed elsewhere. T/C: endpoint of the treated group in % of that of the vehicle group. Some doses have a count of surviving animals in place of a T/C: the source files T/C as zero there, which appears to mark a toxic dose or a test without result, not a measured value. Some survivor counts are full or nearly so, which does not show that the dose was tolerated: the source hardly ever lists a survival T/C far under the control, and the zero likely stands for such cases as well. Counts of survivors are from the toxicity check (mostly the fifth day) where no day follows; animals may have died later. Schedules are NCI's codes, taken here to give the interval after Q, in days (D) or hours (H), and the number of doses after X. Some schedules carry Z or #; the key to these is not given. For survival time, this PubChem deposit counts one and a half times the control or more as active, and values a quarter to a half above the control carry no call in these data; other NCI protocols may use other cut-offs. Some T/C values carry the count of animals alive at the toxicity check (mostly the fifth day); where none is given, no animal had died by that day.

`C=CCOCC(O)CN1CCC(C)CC1` (stereo not given): the survivor count is, setting by setting: under setting [1], 3 of 6; under setting [2], 0 of 6; under setting [3], 0 of 6.
As to `Cn1ncc2c(N)ncnc21`, the survivor count (T/C endpoint: mean survival time, dose: 100.0 mg/kg/injection, schedule: Q01DX009 (ip), vehicle: Klucel (hydroxypropylcellulose) (HPC)) is 4 of 6.
Consider `CCN(CC)CCCNC(=S)NC(C)(C)CC(C)=O`, for which the survivor count (T/C endpoint: mean survival time, dose: 200.0 mg/kg/injection, schedule: Q01DX009 (ip), vehicle: Klucel (hydroxypropylcellulose) (HPC)) was 6 of 6.
For the molecule `Nc1ncnc(N)c1NC(=O)Cc1cccc([N+](=O)[O-])c1`, the survivor count is reported as 3 of 6 under setting [4] and 0 of 6 under setting [5].
Regarding `OCC(O)COc1ccc(Cl)cc1Cl` (stereo not given), under “T/C endpoint: mean survival time, dose: 400.0 mg/kg/injection, schedule: Q01DX009 (ip), vehicle: saline with Tween-80”, the survivor count is given as 1 of 6.
Take `CC1(C)N=C(N)N=C(N)N1c1cccc(CCCCc2c(Cl)cccc2Cl)c1`: the survivor count (T/C endpoint: mean survival time, dose: 100.0 mg/kg/injection, schedule: Q01DX001 (ip), vehicle: saline) was 0 of 6; the survivor count (T/C endpoint: mean survival time, dose: 200.0 mg/kg/injection, schedule: Q01DX001 (ip), vehicle: saline) is 0 of 6; the survivor count (T/C endpoint: mean survival time, dose: 400.0 mg/kg/injection, schedule: Q01DX001 (ip), vehicle: saline) is given as 0 of 6.
Consider `[CH3][Sb]1([CH3])([I])[CH2]CCC[CH2]1`, for which the survivor count (T/C endpoint: mean survival time, dose: 400.0 mg/kg/injection, schedule: Q04DX003 (ip), vehicle: saline) is listed as 2 of 3.
Consider `OCC1(c2ccccc2)CCCC1(CO)c1ccccc1` (stereo not given), for which the survivor count is 3 of 6 (T/C endpoint: mean survival time, dose: 75.0 mg/kg/injection, schedule: Q01DX001 (ip), vehicle: carboxymethylcellulose (CMC)); 1 of 6 (T/C endpoint: mean survival time, dose: 150.0 mg/kg/injection, schedule: Q01DX001 (ip), vehicle: carboxymethylcellulose (CMC)); 1 of 6 (T/C endpoint: mean survival time, dose: 300.0 mg/kg/injection, schedule: Q01DX001 (ip), vehicle: carboxymethylcellulose (CMC)).
Turning to `S=C=Nc1ccc(Cl)c2ccccc12`, the survivor count was 3 of 3 (T/C endpoint: mean survival time, dose: 100.0 mg/kg/injection, schedule: Q04DX002 (ip), vehicle: saline with Tween-80); 1 of 3 (T/C endpoint: mean survival time, dose: 200.0 mg/kg/injection, schedule: Q04DX002 (ip), vehicle: saline with Tween-80); 1 of 3 (T/C endpoint: mean survival time, dose: 400.0 mg/kg/injection, schedule: Q04DX002 (ip), vehicle: saline with Tween-80).
Regarding `CCCCCCCCCCCCCCCCCC[N+](CC)(CC)CC`, the survivor count reads like this: (T/C endpoint: mean survival time, dose: 12.5 mg/kg/injection, schedule: Q01DX001 (ip), vehicle: Klucel (hydroxypropylcellulose) (HPC)) 2 of 6; (T/C endpoint: mean survival time, dose: 25.0 mg/kg/injection, schedule: Q01DX001 (ip), vehicle: Klucel (hydroxypropylcellulose) (HPC)) 2 of 6; (T/C endpoint: mean survival time, dose: 50.0 mg/kg/injection, schedule: Q01DX001 (ip), vehicle: Klucel (hydroxypropylcellulose) (HPC)) 1 of 6; under setting [4], 0 of 6; under setting [5], 0 of 6; (T/C endpoint: mean survival time, dose: 400.0 mg/kg/injection, schedule: Q01DX001 (ip), vehicle: Klucel (hydroxypropylcellulose) (HPC)) 0 of 6.
As for `CSC(SC)=C(C#N)C#N`, for the setting “T/C endpoint: mean survival time, dose: 50.0 mg/kg/injection, schedule: Q04DX002 (ip), vehicle: saline”, the T/C was 125 % of control [2 of 3 alive]. The survivor count is, setting by setting: (T/C endpoint: mean survival time, dose: 100.0 mg/kg/injection, schedule: Q04DX002 (ip), vehicle: saline) 0 of 3; (T/C endpoint: mean survival time, dose: 200.0 mg/kg/injection, schedule: Q04DX002 (ip), vehicle: saline) 0 of 3; (T/C endpoint: mean survival time, dose: 400.0 mg/kg/injection, schedule: Q04DX002 (ip), vehicle: saline) 0 of 3.
On to `O=C(O)c1cccnc1`, for which the survivor count (T/C endpoint: mean survival time, dose: 400.0 mg/kg/injection, schedule: Q01DX009 (ip), vehicle: Klucel (hydroxypropylcellulose) (HPC)) is given as 2 of 6.
With `CS(=O)c1nsc(S(C)=O)c1C#N` (stereo not given), the survivor count is 0 of 3 (T/C endpoint: mean survival time, dose: 25.0 mg/kg/injection, schedule: Q04DX002 (ip), vehicle: Klucel (hydroxypropylcellulose) (HPC)); 0 of 3 (T/C endpoint: mean survival time, dose: 50.0 mg/kg/injection, schedule: Q04DX002 (ip), vehicle: Klucel (hydroxypropylcellulose) (HPC)); 0 of 3 (T/C endpoint: mean survival time, dose: 100.0 mg/kg/injection, schedule: Q04DX002 (ip), vehicle: Klucel (hydroxypropylcellulose) (HPC)); 0 of 3 under setting [6]; 0 of 3 under setting [7].
Consider `CCOC(=O)c1c(NC(=O)C(F)(F)F)[nH]c(SSc2[nH]c(NC(=O)C(F)(F)F)c(C(=O)OCC)c2C(=O)OCC)c1C(=O)OCC`, for which the survivor count (T/C endpoint: mean survival time, dose: 200.0 mg/kg/injection, schedule: Q01DX009 (ip), vehicle: saline with Tween-80) was 1 of 6 and the survivor count (T/C endpoint: mean survival time, dose: 400.0 mg/kg/injection, schedule: Q04DX003 (ip), vehicle: saline with Tween-80) is listed as 4 of 6.
For the molecule `CCC(C)C(=NC)Nc1ccc(Cl)c(Cl)c1` (stereo not given), the survivor count by setting is: (T/C endpoint: mean survival time, dose: 166.0 mg/kg/injection, schedule: Q01DX Z (ip), vehicle: methylcellulose (MC)) 0 of 6; (T/C endpoint: mean survival time, dose: 250.0 mg/kg/injection, schedule: Q01DX Z (ip), vehicle: methylcellulose (MC)) 0 of 6.
`CCCCSC1=CC(=O)c2ccccc2C1=O`: the survivor count (T/C endpoint: mean survival time, dose: 25.0 mg/kg/injection, schedule: Q04DX003 (ip), vehicle: Klucel (hydroxypropylcellulose) (HPC)) is recorded as 6 of 6; the survivor count (T/C endpoint: mean survival time, dose: 50.0 mg/kg/injection, schedule: Q04DX003 (ip), vehicle: Klucel (hydroxypropylcellulose) (HPC)) is recorded as 4 of 6; the survivor count under setting [1] is 1 of 6; the survivor count under setting [2] is recorded as 3 of 6; the survivor count under setting [3] is listed as 0 of 6.
In the case of `NS(=O)(=O)c1nc[nH]c1[N+](=O)[O-]`, the survivor count (T/C endpoint: mean survival time, dose: 400.0 mg/kg/injection, schedule: Q01DX009 (ip), vehicle: acetone) is given as 1 of 6.
On to `COC(=O)CCC(=O)Nc1cccc2cnccc12`, for which the survivor count (T/C endpoint: mean survival time, dose: 200.0 mg/kg/injection, schedule: Q04DX003 (ip), vehicle: saline) is 6 of 6.
`CCCCNC(C)(C)C(SS)c1ccc(Cl)cc1` (stereo not given): under “T/C endpoint: mean survival time, dose: 200.0 mg/kg/injection, schedule: Q01DX009 (ip), vehicle: other”, the survivor count is given as 5 of 6.
With `Cc1cc(NCC(=O)NN)ccc1Cl`, the T/C under setting [6] is 146 % of control. Under setting [7], the survivor count was 0 of 3.
Turning to `CCCCCCCCCCCCCCCc1cc(O)cc(O)c1`, where the note is “T/C endpoint: mean survival time, dose: 100.0 mg/kg/injection, schedule: Q01DX001 (ip), vehicle: other”, the survivor count is given as 4 of 4.
On to `CC(=O)OCC[N+](C)(C)CCCCCCCCCC[N+](C)(C)CCOC(C)=O`, for which the survivor count (T/C endpoint: mean survival time, dose: 12.5 mg/kg/injection, schedule: Q01DX009 (ip), vehicle: saline) is 2 of 6; the survivor count (T/C endpoint: mean survival time, dose: 25.0 mg/kg/injection, schedule: Q01DX009 (ip), vehicle: Klucel (hydroxypropylcellulose) (HPC)) was 0 of 6; the survivor count (T/C endpoint: mean survival time, dose: 50.0 mg/kg/injection, schedule: Q01DX009 (ip), vehicle: Klucel (hydroxypropylcellulose) (HPC)) was 0 of 6.
Take `Cc1nc2nc(N)nc(N)c2nc1CNc1ccc(C(=O)NC(CCC(=O)O)C(=O)O)cc1` (stereo not given): the T/C (T/C endpoint: median survival time, dose: 39.0 mg/kg/injection, schedule: Q01DX009 (ip), vehicle: other) is 130 % of control.
Consider `COc1ccc(C(=NN=C(N)N)c2ccc(OC)cc2)cc1`, for which the survivor count is, setting by setting: (T/C endpoint: mean survival time, dose: 120.0 mg/kg/injection, schedule: Q01DX Z (ip), vehicle: saline) 5 of 6; (T/C endpoint: mean survival time, dose: 960.0 mg/kg/injection, schedule: Q01DX Z (oral), vehicle: saline) 3 of 6.

The record behind these values is PubChem BioAssay AID248 (DTP/NCI, 2004).
